Binding data for one molecule are collected here from patent publication US20220243249A1, “ANTAGONISTS OF CAMKII-DELTA 9 AND USES THEREOF” (PEKING UNIVERSITY, priority 2019, published 2022).

This test concerns the target UBE2T-myc (plasmid-expressed in HEK293 cells) (Rattus norvegicus). The test is described as follows: co-immunoprecipitation in transfected HEK293 cells.

These are yes or no findings as the source states them, for the method shown. In cells and extracts the contact can be indirect. A result given as binding can be weak or reduced; the word gives no strength. Where a sequence is shown, tags or fusion partners need not be part of it.

B1: peptide encoded by CaMKII-δ exons 13-16-17, tagged with Flag-GFP (peptide, not shown: large carriers)
chain: AAKSLLKKPDGVKEPQTTVIHNPDGNKESTESSNTTIEDEDVK
With B1, the binding result is given as “binds”.
